Reference: PubChem BioAssay AID504807 (Drosophila RNAi Screening Center, 2011)
Purpose: 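Factors needed for cleavage of pre-mRNA from replication-dependent histone genes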. Cell system: Drosophila Dmel-2 cells. Reagent: long dsRNA against Drosophila genes, 250 ng dsRNA per well. Timing: about 5 days (reporter added on day 3, imaged 2 days later). Read-out: 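GFP reporter signal in each well imaged and visually compared with adjacent wells and a U7 snRNA oligo positive control using collages, with hits rated weak, medium or strong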. Active means: 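Confirmed hit: dsRNA gave visibly higher GFP reporter fluorescence that reproduced in repeated knock-down experiments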. Calls: active = confirmed hit; inactive = not confirmed.
The reagents shown are a selection, not the whole library. 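All listed dsRNAs looked positive in the first pass but only 20 held up on retesting; weak-to-strong grades are not deposited.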 A plus sign joins genes that one reagent is predicted to hit.

After knock-down of CG6071, the screen gave inactive.
Silencing of gfzf gave: inactive.
Silencing of CG42342 gave: inactive.
mfrn gave inactive.
Against Or67a, the entry reads inactive.
Knock-down of dpr4 gave: inactive.
Depletion of CG42699 gave: inactive.
Depletion of Cypl came out at: inactive.
With knock-down of CG32298 + CG32299 the results were inactive.
Depletion of mof resulted in: inactive.
For CG13247, the entry reads inactive.
For slbo, the values are inactive.
With knock-down of CG1824, the screen gave inactive.
Silencing of Actn3 came out at: inactive.
Knock-down of sdt gave: inactive.
CG12204 gave inactive.
After knock-down of CG10710, the record shows inactive.
Against CG15330, the values are inactive.
Against tum the deposit lists inactive.
Against trh, the entry reads inactive.
Polr1E scored inactive.
For Tgs1 + moi the deposit lists inactive.
For Nlg4 the deposit lists inactive.
CG32187 gave inactive.
Against Dr, the entry reads inactive.
Slbp showed active.
After knock-down of Lsm10, the screen gave active.
After knock-down of CG6576, the screen gave inactive.
With knock-down of Tdrd3, the screen gave inactive.
Bap170 showed inactive.
With knock-down of fh the results were inactive.
Knock-down of CG31183 resulted in: inactive.
GstD10 scored inactive.
After knock-down of CG33270, the record shows inactive.
With knock-down of Tom7, the screen gave inactive.
CG15141 gave inactive.
Cpr50Ca showed inactive.
With knock-down of Dab, the record shows inactive.
For cic the deposit lists inactive.
CG13461 scored inactive.
Depletion of Scp2 gave: inactive.
With knock-down of obst-B, the screen gave inactive.
Depletion of obst-F gave: inactive.
Depletion of GstD7 resulted in: inactive.
CG7326 gave inactive.
Fur1 scored inactive.
Against MED26, the entry reads inactive.
With knock-down of Pgant9, the screen gave inactive.
Against CG7634 the deposit lists inactive.
Silencing of Tctp gave: inactive.
Silencing of CG10674 came out at: inactive.
After knock-down of CG14292, the record shows inactive.
With knock-down of CG13032 the results were inactive.
Knock-down of cwo came out at: inactive.
Silencing of aln came out at: inactive.
Silencing of CG34242 resulted in: inactive.
Met75Cb + Met75Ca scored inactive.

Hits (from the list above):
Slbp | Outcome: active
Lsm10 | Outcome: active
